Data on 1 molecule can be found in patent publication US20260152569A1, “ANTI-GPC1 MONOCLONAL ANTIBODY, THERAPEUTIC AND DIAGNOSTIC USES THEREOF” (CENTRO DI RIFERIMENTO ONCOLOGICO DI AVIANO, priority 2022, published 2026).

Results are given in words; binding and its absence hold for the method and conditions named. Some binding calls cover weakened binding; strength is not graded here.

This assay deals with T1, GPC1 (antigen in ELISA) (UniProt P35052).
T1 sequence (looked up): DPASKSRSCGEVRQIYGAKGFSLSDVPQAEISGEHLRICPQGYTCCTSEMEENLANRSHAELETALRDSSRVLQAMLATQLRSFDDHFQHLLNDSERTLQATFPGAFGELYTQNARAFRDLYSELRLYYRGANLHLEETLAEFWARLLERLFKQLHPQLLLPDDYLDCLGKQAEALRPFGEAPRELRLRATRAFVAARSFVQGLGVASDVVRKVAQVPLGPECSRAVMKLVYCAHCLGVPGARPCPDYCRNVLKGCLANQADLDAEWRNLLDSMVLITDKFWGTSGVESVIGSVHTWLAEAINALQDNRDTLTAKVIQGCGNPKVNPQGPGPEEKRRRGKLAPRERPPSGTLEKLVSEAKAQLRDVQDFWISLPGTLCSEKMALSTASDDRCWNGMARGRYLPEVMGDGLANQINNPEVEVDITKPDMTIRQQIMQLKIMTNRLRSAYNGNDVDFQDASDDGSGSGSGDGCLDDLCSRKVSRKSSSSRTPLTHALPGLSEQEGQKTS
In words: ELISA. (In general: In an ELISA, binding on a coated surface is turned into a signal by an enzyme label.)

B1: anti-GPC1 C (antibody, V domains shown)
VH: QVQLQQSDAELVKPGASVKISCKASGYTFTDHAIHWVKQKPEQGLEWIGYISPGNGDIKYNEKFKGKATLTADKSSSTAYMQLNSLTSEDSAVYFCKRYAYWGQGTLVTVSA
VL: DVLMTQTPLSLPVSLGDQASISCRSSQSIVHSNGNTYLEWYLQKPGQSPKLLIYKVSNRFSGVPDRFSGSGSGTDFTLKISRVEAEDLGVYYCFQGSHVPWTFGGGTKLEIKP
Consider B1, for which the binding entry is on record as “binds”.
